These are yes or no findings as the source states them, for the method shown. Binding seen in cells or lysates may run through a third protein. Binding can be weak; no strength is given.
Molecular target: T1, thioredoxin-interacting protein (TXNIP), mouse heart (mouse (endogenous in heart tissue)) (UniProt Q8BG60)
T1 sequence: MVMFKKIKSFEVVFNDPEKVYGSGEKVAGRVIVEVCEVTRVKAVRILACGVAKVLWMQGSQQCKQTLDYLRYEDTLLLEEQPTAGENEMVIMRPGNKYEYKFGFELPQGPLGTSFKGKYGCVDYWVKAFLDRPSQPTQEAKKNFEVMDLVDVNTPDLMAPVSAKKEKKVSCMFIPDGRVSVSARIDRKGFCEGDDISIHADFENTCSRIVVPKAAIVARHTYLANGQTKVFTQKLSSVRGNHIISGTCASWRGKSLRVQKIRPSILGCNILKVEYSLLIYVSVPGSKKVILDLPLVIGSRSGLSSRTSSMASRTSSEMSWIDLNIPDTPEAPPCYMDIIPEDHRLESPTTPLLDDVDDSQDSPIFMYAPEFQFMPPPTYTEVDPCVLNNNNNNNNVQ
Assay: co-IP; endogenous co-immunoprecipitation from mouse heart tissue lysate with TXNIP antibody, immunoblot for NLRP3, TXNIP and thioredoxin; mice on ND or HFD for 24 wks, with rAAV9-cTnT-null or rAAV9-cTnT-TXNIP (Figure S5I), or with NS or MitoTEMPO (Figure 7I)

- binding: binds
Substance: thioredoxin (TRX), mouse heart
